Measurements from paper PMC12102759.
These are yes or no findings as the source states them, for the method shown.

The chains behind the UniProt entries cited, without tags or fusion partners. Where a name states a change or a piece, a line headed by the entry shows the natural chain unless it says otherwise. Residues count along the entry.
UniProt Q9Y490, residues 309-401: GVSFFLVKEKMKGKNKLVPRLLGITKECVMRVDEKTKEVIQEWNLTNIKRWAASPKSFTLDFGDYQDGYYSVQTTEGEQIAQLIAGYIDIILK
UniProt Q6XPS3: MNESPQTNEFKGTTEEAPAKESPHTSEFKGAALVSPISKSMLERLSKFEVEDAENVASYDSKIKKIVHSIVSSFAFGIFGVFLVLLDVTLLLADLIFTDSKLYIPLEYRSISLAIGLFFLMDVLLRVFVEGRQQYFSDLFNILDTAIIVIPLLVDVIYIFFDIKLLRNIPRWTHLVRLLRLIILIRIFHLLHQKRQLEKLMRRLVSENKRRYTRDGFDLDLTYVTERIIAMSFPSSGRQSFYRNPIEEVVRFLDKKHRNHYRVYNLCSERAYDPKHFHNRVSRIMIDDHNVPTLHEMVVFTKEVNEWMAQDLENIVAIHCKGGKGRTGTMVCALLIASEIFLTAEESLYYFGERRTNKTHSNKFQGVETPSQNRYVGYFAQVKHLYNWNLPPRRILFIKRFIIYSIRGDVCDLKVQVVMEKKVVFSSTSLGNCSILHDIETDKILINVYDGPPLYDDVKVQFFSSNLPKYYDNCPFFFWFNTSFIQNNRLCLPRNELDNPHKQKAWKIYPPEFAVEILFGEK

Target: talin‐1 PTB domain (309–401), tag cleaved, for FP (human) (UniProt Q9Y490)
Test: fluorescence polarisation; human domains; saturation with FITC-labelled probe peptide or displacement by unlabelled peptide; 50 mM KPO4 pH 7.5, DTT; triplicates; the text does not tell which of the two gave each KD; both purified

## TPTE2_(92‐107) F97A peptide (from UniProt Q6XPS3 92-107)
  binding: no binding
